What was measured:
Type in all cases: in vivo
[1] = tested on: maximal electroshock seizures; experiment: Maximum Electroshock Seizure (MES) test, rats; details: protection index, TD50 from rotarod (TOX); for PI (MES, rats, p.o.): 0.25 h
Experimental: In order to define anticonvulsant activity, screening tests were performed, using animal models of seizures. […] The tests were based on administration of a compound to an animal and after certain time inducing state similar to epilepsy attack in human. Each substance (after dissolving in methylcellulose) was normally tested in doses 30, 100, and 300 mg/kg body weight (b.w.) (mice) or in 30 and 50 mg/kg b.w. (rats) in two possible routes of administration: intraperitoneal (i.p.) or oral (p.o.). […] […] (mice) the tests were also performed in doses 10 and 3 mg/kg b.w.
Maximum Electroshock Seizure (MES) test is an electric test, verifying activity towards generalized tonic-clonic seizures (grand mal epilepsy). […] Its procedure consists in administration to an animal a mentioned dose, […] (after anesthetic eye-drops: 0.5% tetracaine hydrochloride in 0.9% NaCl) and turning on electric current (60 Hz, 0.2 s, 50 mA (mice) or 150 mA (rats)). […]

[2] = tested on: maximal electroshock seizures; experiment: Maximum Electroshock Seizure (MES) test, mice; details: for TPEMES (time to peak effect, MES): species not given
Experimental: (§1) In order to define anticonvulsant activity, screening tests were performed, using animal models of seizures. […] Each substance (after dissolving in methylcellulose) was normally tested in doses 30, 100, and 300 mg/kg body weight (b.w.) (mice) or in 30 and 50 mg/kg b.w. (rats) in two possible routes of administration: intraperitoneal (i.p.) or oral (p.o.). Appropriate tests were performed 0.5 and 4 h after administration of the compound. […] (mice) the tests were also performed in doses 10 and 3 mg/kg b.w.
Maximum Electroshock Seizure (MES) test is an electric test, verifying activity towards generalized tonic-clonic seizures (grand mal epilepsy). […] Its procedure consists in administration to an animal a mentioned dose, and after 0.5 or 4 h attaching corneal electrodes (after anesthetic eye-drops: 0.5% tetracaine hydrochloride in 0.9% NaCl) and turning on electric current (60 Hz, 0.2 s, 50 mA (mice) or 150 mA (rats)). […] Normally, in the dose 30 mg/kg b.w. the test is done in 1 mouse after 0.5 or 4 h, in the dose 100 mg/kg b.w.—in 3 mice, and in the dose 300 mg/kg b.w.—in 1 mouse.

neurotoxicity (rotarod) = experiment: Neurotoxicity test (TOX), rotarod, mice; details: species not given
Experimental: as §1
It is performed with use of rotarod test. The animal is placed on a plastic rod (1 inch in diameter), rotating 6 rpm. The rod is placed on a level discouraging the animal to jump off. […] Neurotoxicity is stated if the animal cannot stay on the rod for 1 min. in any of 3 trials. Normally the test is performed in dose 30 mg/kg b.w. in 4 mice (0.5 h) and in 2 mice (4 h), in the dose 100 mg/kg b.w. in 8 mice (0.5 h) and in 4 mice (4 h) and in the dose 300 mg/kg b.w. in 4 mice (0.5 h) and 2 mice (4 h).

[3] = protection index, TD50 from rotarod (TOX), mice, 0.25 h

Cc1cccc(C)c1OCCN[C@@H](C)CO [Compound 13, S-(+)-2N-[(2,6-dimethylphenoxy)ethyl]amino-1-propanol]
PI (MES, rats, i.p.) [1]: 5.51
PI (MES, mice, i.p.) [2, 3]: 4.38

CCC(CO)NCCOc1c(C)cccc1Cl (stereo not shown) [Compound 26, R,S-2N-[(2-chlor-6-methylphenoxy)ethyl]amino-1-butanol]
PI (MES, rats, i.p.) [1]: 4.5
PI (MES, rats, p.o.) [1]: > 3.55
TPEMES (time to peak effect, MES) [2]: 0.25 h
PI (MES, mice, i.p.) [2, 3]: 2.56
TPETOX (time to peak effect, neurotoxicity) (neurotoxicity (rotarod)): 0.25 h

Cc1cccc(C)c1OCCN[C@H](C)CO [Compound 12, R-(−)-2N-[(2,6-dimethylphenoxy)ethyl]amino-1-propanol]
PI (MES, rats, i.p.) [1]: 6.74
PI (MES, rats, p.o.) [1]: > 17.48
TPEMES (time to peak effect, MES) [2]: 0.25 h
PI (MES, mice, i.p.) ([2]; protection index printed beside the female mice ED50): 1.74
PI (MES, mice, i.p.) [2, 3]: 5.51
PI (MES, mice, p.o.) ([2]; protection index, mice, p.o.): 2.82
TPETOX (time to peak effect, neurotoxicity) (neurotoxicity (rotarod)): 0.25 h

Cc1cccc(Cl)c1OCC(=O)NCC(C)O (stereo not shown) [Compound 68, R,S-1N-[(2-chlor-6-methylphenoxy)acetyl]amino-2-propanol]
PI (MES, mice, i.p.) ([2]; protection index, mice, time not given): 1.43

Cc1cccc(C)c1OCCNC(C)CO (stereo not shown) [Compound 11, R,S-2N-[(2,6-dimethylphenoxy)ethyl]amino-1-propanol]
PI (MES, rats, p.o.) [1]: < 10.63

— US8633251B2, “Derivatives of aminoalkanols, method of obtaining of aminoalkanols and their use” (Uniwersytet Jagiellonski, priority 2008, dated 2014)
